# Test results taken from the supplement of paper PMC3334620.
# In all, about 33,000 sequences were measured (“E-score (-0.5 to 0.5)”: median about -0.0014, highest 2% from about 0.25 on). The list shows a part of the results.
# Target: T1, Cad1 (UniProt P24813)
# T1 sequence: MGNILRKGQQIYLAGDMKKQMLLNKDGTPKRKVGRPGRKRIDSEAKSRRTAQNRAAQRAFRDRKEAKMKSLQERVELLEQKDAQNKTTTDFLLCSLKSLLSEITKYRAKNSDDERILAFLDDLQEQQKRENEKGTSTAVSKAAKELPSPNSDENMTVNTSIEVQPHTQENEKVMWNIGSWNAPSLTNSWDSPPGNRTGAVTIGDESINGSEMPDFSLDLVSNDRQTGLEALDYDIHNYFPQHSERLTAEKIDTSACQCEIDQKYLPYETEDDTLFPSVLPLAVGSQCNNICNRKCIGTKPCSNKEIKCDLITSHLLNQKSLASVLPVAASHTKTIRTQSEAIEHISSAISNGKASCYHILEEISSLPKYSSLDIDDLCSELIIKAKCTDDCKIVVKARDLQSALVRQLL
# Experiment: PBM E-score (8-mer binding enrichment) (E-score (-0.5 to 0.5)); higher = stronger / more preferred TF binding
# Conditions: protein concentration: 100 nM; construct: GST-full length
# In short: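 PURExpress in vitro transcription/translation supplied GST-tagged yeast transcription factors, either full-length or DNA-binding domain. Applied at about 100-200 nM to universal all-10-mer Agilent arrays double-stranded by primer extension, the bound protein was detected with fluorescent anti-GST. E-scores, modified Wilcoxon-Mann-Whitney statistics, were given by the Universal PBM Analysis Suite to ungapped eight-base words pooled with their reverse complements after masliner normalisation.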
row,Sequence,PBM E-score
1,ATATCGAC,0.178
2,CGATTACG,0.13
3,ATACCAGC,-0.0568
4,AGGTTGAT,-0.18
5,AGCAGATG,-0.0375
6,CCATTTCA,-0.0256
7,CGCGACTC,0.049
8,TATAGAGA,-0.0863
9,CGTGACAC,0.126
10,AAAGCGGG,-0.177
11,AATCGAAA,0.00175
12,GCAACGAC,-0.00571
13,CTCATGTA,0.118
14,GCTAACTA,0.17
15,AGTACGAG,-0.0103
16,AACGGCGT,0.057
17,CGACTTAG,0.0509
18,ACCAAACG,0.0664
19,CTACTGTC,-0.0918
20,ACTCCAGT,0.0336
21,GAGTTTAC,-0.0611
22,ACTAACAT,0.255
23,GCCCCTTA,-0.144
24,GCCCTAAA,-0.269
25,ACTCTTCG,0.0114

row,Sequence,PBM E-score
1,TGCGCACA,0.248
2,AATTATCG,0.247
3,TACTAGTA,0.273
4,ATATTACC,0.28
5,GAGGTCCC,-0.2
6,CAGCCGCC,-0.0839
7,ACTAGAGC,-0.162
8,ACATAGGA,-0.26
9,GCTCTCGA,-0.141
10,AATCGGGG,-0.241
11,GAGTTCGA,0.208
12,AATATAGC,0.0229
13,AGAAGAAA,-0.00692
14,GCTAGCAA,0.0812
15,CGCGGGGC,-0.0341
16,TAGCGAGA,0.0828
17,CCGATGCC,-0.0323
18,ATTTGCGG,0.207
19,AATCGAAG,0.182
20,CACTCCGG,0.101
21,CAATCCTG,-0.0306
22,CGCCGGAC,0.0345
23,ATGGCTGA,0.0987
24,AGACCCGA,0.00515
25,CCGCGTCA,-0.101

# Fetched one by one from the list above:
row,Sequence,PBM E-score
25,CCGCGTCA,-0.101
7,ACTAGAGC,-0.162
22,CGCCGGAC,0.0345

# More results follow.

row,Sequence,PBM E-score
1,AGCCTAGC,-0.104
2,AACCCTCT,-0.267
3,ACCTCTTG,-0.137
4,TAGCACGA,0.121
5,TGCTACCA,0.0111
6,CTACACTC,-0.0224
7,AACCCGAA,0.0851
8,CAACGACC,-0.138
9,GTGGGAAA,0.0974
10,AGGACCCC,-0.203
11,CGGGCCCA,-0.114
12,CCGATTCA,-0.0748
13,ATTAGACC,-0.224
14,CCGCAAAA,0.0906
15,CCGGGTAC,-0.281
16,CTCACCCA,-0.169
17,GCCACGGA,-0.00423
18,AACAACTT,0.183
19,CTCCCATC,-0.149
20,CAGAGACA,-0.226
21,ACACCTCT,-0.0373
22,GACTATCC,-0.0732
23,ATTAGTAG,0.0921
24,GCTGCAAA,0.121
25,TTATGAAA,0.0909

row,Sequence,PBM E-score
1,AGCTCGTC,-0.00865
2,ACAACTTC,0.119
3,CGGCCTCA,0.0551
4,GAATTAGA,0.0025
5,ACACTTTG,0.115
6,ATTGCAGA,-0.094
7,CCGTAACC,0.0319
8,AGGGCACT,-0.201
9,ATCTCTTG,-0.0545
10,CTCCCATA,-0.213
11,GCTACGCC,-0.242
12,GAGGGAAA,-0.247
13,CCTCATGC,-0.287
14,ACAGCCAC,0.0429
15,CACCCTGG,-0.233
16,ACTTCATG,0.00178
17,CACCCGTA,-0.174
18,AAATTCAT,0.148
19,ATCGTCCG,0.148
20,ACGCGCCG,-0.108
21,AATCCATG,-0.0149
22,AGAGGAGC,-0.178
23,AACAGTTA,0.00761
24,CCGCGAAC,0.211
25,GGCGGAAA,0.0304

row,Sequence,PBM E-score
1,AGGCTCAG,-0.181
2,CCTAGGTA,-0.116
3,CGGGAAAC,0.14
4,ATACCCCC,-0.289
5,CCCCCACC,-0.425
6,ATACTCTC,-0.0105
7,CACGGGAA,-0.143
8,GAGAACCA,-0.0413
9,ACTCTGAG,-0.104
10,ACCATGGT,-0.057
11,CGGTCGTC,-0.164
12,CCCCTTTA,-0.215
13,CCCAGACG,-0.129
14,AGTCAGGG,-0.148
15,AGCCTTGC,-0.0869
16,ACTATGTC,0.0779
17,ATAGGCTG,0.0227
18,GCTTCGAC,-0.117
19,ACGTAGGG,-0.284
20,GTGGTTGA,0.0124
21,AGATGGAA,-0.0158
22,AATTTAGT,0.212
23,TGCGGCCA,-0.03
24,CGAGCAGC,0.0889
25,GAGGATCA,-0.0941

# 4 neighbouring records out of the list so far:
row,Sequence,PBM E-score
11,CGGTCGTC,-0.164
12,CCCCTTTA,-0.215
13,CCCAGACG,-0.129
14,AGTCAGGG,-0.148

# (listing goes on)

row,Sequence,PBM E-score
1,CCAAATGG,0.0135
2,CGGTTCGC,-0.0427
3,AAGGCGTA,-0.135
4,ACACCCGC,0.134
5,GACCAAAC,-0.0136
6,TAGTCCGA,-0.113
7,GCTCAGCA,0.0822
8,AAGTATTA,-0.0007
9,CTTGGACA,-0.148
10,CTTACACC,-0.233
11,AGCCCTAT,-0.045
12,AAAAACAT,-0.0184
13,ACCCCTAC,-0.269
14,AATAGGTG,-0.0516
15,AGTTTTTA,0.0256
16,AGGAAGCA,0.0172
17,AGATTCAT,-0.0355
18,TGAACCCA,-0.017
19,CAGTCGCC,-0.0771
20,GAAACTTA,0.156
21,CGTAGAAA,-0.0392
22,AAACTTTA,0.041
23,AGCCGGAT,0.061
24,AATCTGGT,0.0701
25,CACAACAA,0.0156

row,Sequence,PBM E-score
1,CGTACTAC,0.0392
2,CCTGAGGA,0.0598
3,CAAGTGGA,-0.0832
4,ATAGGATG,-0.0449
5,AATCTATA,0.0946
6,AAGCGTAC,-0.113
7,CGGGGTGA,-0.119
8,AGCGAGGC,-0.0859
9,ATAGTAAG,0.187
10,CACGTACA,-0.107
11,AGTCCGCC,-0.00907
12,CGCAACCG,0.0752
13,GATTTAGA,-0.0069
14,GCGAGTTA,0.0928
15,CAGCTTCG,0.0121
16,GACTTCGA,-0.0474
17,TAACATGA,0.0484
18,TCGGTGAA,-0.0335
19,AAGCTTAC,0.192
20,ATTAAGCA,0.0816
21,CAGTGCTC,-0.108
22,AAAACCTC,0.156
